From paper PMC4894404 come the findings set out here.

Chains of the proteins cited; added tags and fusions are not shown. Lines headed by an entry give the natural chain unless they say otherwise; changes in a name come on top.
UniProt A0AUJ0: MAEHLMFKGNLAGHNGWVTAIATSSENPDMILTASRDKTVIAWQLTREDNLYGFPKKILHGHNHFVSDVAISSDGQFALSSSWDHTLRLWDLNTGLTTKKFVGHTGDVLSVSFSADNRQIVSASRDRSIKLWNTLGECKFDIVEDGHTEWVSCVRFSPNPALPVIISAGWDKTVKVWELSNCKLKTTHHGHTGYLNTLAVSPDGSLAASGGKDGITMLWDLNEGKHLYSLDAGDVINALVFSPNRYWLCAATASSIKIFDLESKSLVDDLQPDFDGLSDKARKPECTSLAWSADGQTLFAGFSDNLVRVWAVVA
UniProt P0CQ70: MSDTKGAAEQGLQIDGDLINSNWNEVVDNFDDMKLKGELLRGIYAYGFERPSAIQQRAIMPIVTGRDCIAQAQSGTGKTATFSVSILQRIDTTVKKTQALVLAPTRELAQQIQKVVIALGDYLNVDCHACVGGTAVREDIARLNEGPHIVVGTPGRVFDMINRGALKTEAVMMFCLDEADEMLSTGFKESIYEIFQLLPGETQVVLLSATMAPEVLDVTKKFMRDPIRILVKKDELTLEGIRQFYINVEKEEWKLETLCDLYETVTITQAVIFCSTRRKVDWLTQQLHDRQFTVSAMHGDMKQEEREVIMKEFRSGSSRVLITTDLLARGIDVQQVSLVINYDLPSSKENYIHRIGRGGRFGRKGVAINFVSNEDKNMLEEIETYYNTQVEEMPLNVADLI

Results are given in words; binding and its absence hold for the method and conditions named. In cells and extracts the contact can be indirect. Binding can be weak; no strength is given.

For this assay, the target named is GST-Gib2 (C. neoformans) (UniProt A0AUJ0). As to the kind of experiment: pull-down; called co-immunoprecipitation by the paper; GST-Gib2 on glutathione-sepharose resin, His-eIF4A added, overnight 4°C in Tris-NaCl buffer (50 mM Tris-HCl pH 7.4, 100 mM NaCl, 1% Triton X-100, 1 mM PMSF); Western blot with anti-His and anti-GST; both purified.

As to His-eIF4A (from UniProt P0CQ70 1-401), the binding result was “binds”.
